In patent US20090035215A1 (priority 2006, published 2009) one finds isolated yield data, which are given here for two substances.

A short description of the data set: general procedure: Fmoc solid-phase peptide synthesis; Rink amide resin; DCC, HOBt; HBTU/HOBT/diisopropyl ethyl amine for silane acid coupling. Particulars: whole synthesis.

For “4-[3-(Ethoxy-diisopropyl-silanyl)-propylcarbamoyl]-butyric-Val-βAla-Phe-Gly-NH2”, where the note is “scale 0.05 mmol”, the isolated yield is reported as 12%.

Where the note is “scale 69 μM”, “(Di-tert-butyl-hydroxy-silanyl)-acetyl-Val-βAla-Phe-Gly-NH2” showed an isolated yield of 33%.
